Source: patent US20260083851A1 (AVILAR THERAPEUTICS, INC., priority 2022, published 2026)
The match of structure and compound is tentative.

Protein sequences, listed by entry. Tags and fused reporters are not part of them.
UniProt P07306, whole entry: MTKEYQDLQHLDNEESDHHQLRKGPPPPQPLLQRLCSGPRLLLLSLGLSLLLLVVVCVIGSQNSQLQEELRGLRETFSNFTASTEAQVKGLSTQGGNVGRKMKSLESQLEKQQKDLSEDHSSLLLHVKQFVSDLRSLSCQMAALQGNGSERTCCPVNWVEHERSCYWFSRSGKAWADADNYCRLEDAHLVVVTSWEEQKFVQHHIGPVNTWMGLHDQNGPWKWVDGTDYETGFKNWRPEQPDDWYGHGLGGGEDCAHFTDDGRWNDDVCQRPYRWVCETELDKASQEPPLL

Target: ASGP receptor (biotinylated ASGPR) (Homo sapiens, UniProt P07306)
Type: binding
Conditions: read-out: ASGPR KD; SPR, Biacore 8K, 25° C.; Table 1A

Row | Structure (SMILES) | Kd
1 | [N-]=[N+]=NCCCCCC(=O)NC(COCCC(=O)NCCOCCOCCOCCOC[C@H]1OC[C@H](Nc2cncc(C(F)(F)F)n2)[C@@H](O)[C@H]1O)COCCC(=O)NCCOCCOCCOCCOC[C@H]1OC[C@H](Nc2cncc(C(F)(F)F)n2)[C@@H](O)[C@H]1O | < 10 µM
2 | C[C@H](NC[C@H]1OC[C@H](Nc2cncc(C(F)(F)F)n2)[C@@H](O)[C@H]1O)c1ncccn1 (single isomer, unassigned) | < 10 µM
3 | N#Cc1cc(C(=O)NC[C@H]2OC[C@H](Nc3cncc(C(F)(F)F)n3)[C@@H](O)[C@H]2O)[nH]n1 | < 10 µM
4 | O[C@@H]1[C@H](O)[C@@H](Nc2cncc(C(F)(F)F)n2)CO[C@@H]1CN1CCN(CC2CCNCC2)CC1 | < 10 µM
5 | C[C@@H](NC[C@H]1OC[C@H](Nc2cncc(C(F)(F)F)n2)[C@@H](O)[C@H]1O)c1ncccn1 (single isomer, unassigned) | < 10 µM

Same assay, conditions: read-out: ASGPR KD; SPR, Biacore 8K, 25° C.; Table 1C

Row | Kd | Structure (SMILES)
6 | < 10 µM | C#C[C@H]1OC[C@H](Nc2cncc(C(F)(F)F)n2)[C@@H](O)[C@H]1O
